Laboratory results taken from US20180201658A1 (MIT, published 2018).

Target: KSBcl-2
Assay: solution binding of N-terminal fluorescein peptide (FIG. 1)

Row | binding | Binder
1 | binds | RPEIWLGQSLQRLGDEINAYYAR (N-terminal fluorescein) [B3 peptide with N-terminal fluorescein]
2 | binds | RPEIWMGQGLRRLGDEINAYYAR (N-terminal fluorescein) [A12 peptide with N-terminal fluorescein]

No constants are given. Whether binding was seen depends on the method and setting. Binding can be weak; no strength is given.
